Laboratory results: PubChem BioAssay AID2685 (National Center for Advancing Translational Sciences (NCATS), 2010)
Some of the results follow. The main result of the screen is listed elsewhere. These columns were measured beside it and carry no call. Most of these compounds were active or inconclusive in the main read-out, so they are no random draw. Words in brackets tell the shape of the fitted curve; partial curves, single points and poor fits give uncertain potencies.

Assay: qHTS Assay for Lipid Storage Modulators in Drosophila S3 Cells;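 as to cell number change: cells counted by Cell Tracker Red CMTPX staining in the red channel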
Details: BODIPY lipid droplet fluorescence, 18-24 h; for cell number change: measured here: cell count max response, cells fed with added oleic acid
Procedure, shortened: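 Drosophila S3 cells loaded with oleic acid (400 uM, as added) and compounds at several concentrations; lipid droplets imaged by 488-nm laser-scanning cytometry, 500–530 nm intensity and object ratio to cell channel. Percent activity normalized to 20 uM Triacsin C.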

[1] = measured here: lipid fluorescence (Fed channel) AC50, cells fed with added oleic acid
[2] = measured here: cell number channel AC50, cells fed with added oleic acid

For `O=C(NCC1CCCN1S(=O)(=O)c1cccs1)c1ccccc1F` (stereo not given), the cell number change was 26.1%.

In the case of `Cc1ccc2nc(Nc3ccccc3)c(C=O)c(=O)n2c1`, the cell number change is reported as 4.14% and the AC50 [1] is reported as 29.1 µM [falling, single point].

For `O=C(c1ccco1)N1CCN(C(=O)c2cn(-c3ccccc3)nc2-c2ccccc2)CC1`, the cell number change was 8.39% and the AC50 [1] was 6.51 µM [rising, single point].

For `CCOC(=O)Cc1csc(NS(C)(=O)=O)n1`, the cell number change was -21.8% and the AC50 [2] was 0.00461 µM [falling, full curve, poor fit].

Compound `CC(C)c1nnc(NC(=O)CCC(=O)NCc2cccs2)s1` has a cell number change of 4.8%.

With `COc1cc(C(=O)NCC(c2cccs2)N2CCc3ccccc32)cc(OC)c1OC` (stereo not given) the cell number change was -11.8% and the AC50 [2] was 4.11 µM [rising, single point].

In the case of `COc1ccc(S(=O)(=O)N/N=C\c2ccccc2F)cc1`, the cell number change is reported as -4.95% and the AC50 [1] is reported as 29.1 µM [rising, single point].

In the case of `CNc1sc(C(=O)c2ccc(F)cc2)c(N)c1-c1nc2ccccc2s1`, the cell number change is reported as -49.2%, the AC50 [2] is reported as 18.4 µM [falling, single point] and the AC50 [1] is reported as 16.4 µM [falling, partial curve].

In the case of `COc1cccc2c1OC1(CCN(C(C)C)CC1)N1N=C(c3cccnc3)CC21` (stereo not given), the cell number change is reported as 22.2% and the AC50 [1] is reported as 0.651 µM [rising, single point].

Compound `CNc1snc(C)c1C(=O)OCC(=O)c1cc(F)ccc1OC` has a cell number change of 12.3%.

Work on `COc1ccccc1NC(=O)COC(=O)C1C2CC3OC(=O)C1C3C2` (stereo not given) yielded a cell number change of -1.9%.

With `COc1ccccc1OCCNC(=O)c1cc(SC)ccc1Cl` the cell number change was 6.74% and the AC50 [1] was 18.4 µM [rising, partial curve].

With `Cc1ccc(CNc2nc(C)nc3sc4c(c23)CCC4)cc1` the cell number change was -17.9% and the AC50 [1] was 23.1 µM [falling, single point].

For `Cn1c(C(=O)N2CCC(C(N)=O)CC2)cc2cc(Cl)ccc21`, the cell number change was 5.03% and the AC50 [1] was 0.116 µM [rising, full curve].

For `CC(=O)Nc1ccc(OCC(=O)N(CC(C)C)C2CCS(=O)(=O)C2)cc1` (stereo not given), the cell number change was -38.5%, the AC50 [2] was 1.16 µM [falling, full curve, poor fit] and the AC50 [1] was 1.3 µM [falling, full curve, poor fit].

In the case of `Cc1ccc(NCN2C(=O)C(=O)c3ccccc32)nc1`, the cell number change is reported as -20.2% and the AC50 [1] is reported as 13 µM [falling, single point].

For `COc1ccc(OC)c(C2SCCN2S(C)(=O)=O)c1` (stereo not given), the cell number change was 30.2% and the AC50 [2] was 20.6 µM [rising, single point].

In the case of `Cc1cccnc1NC(=O)c1ccccc1-c1ccccc1C(=O)Nc1ncccc1C`, the cell number change is reported as -11.8%, the AC50 [2] is reported as 0.0731 µM [falling, full curve, poor fit] and the AC50 [1] is reported as 6.51 µM [falling, single point].

In the case of `CC(C)CCN1CCN(Cc2ccoc2)CC1CCO` (stereo not given), the cell number change is reported as 9.68% and the AC50 [1] is reported as 23.1 µM [rising, single point].

In the case of `COc1ccc(C(=O)Nc2cc(C)ccc2NC(=O)COc2ccccc2)cc1`, the cell number change is reported as 65.9%, the AC50 [2] is reported as 16.4 µM [rising, single point] and the AC50 [1] is reported as 14.6 µM [rising, partial curve].

With `COc1ccc(Cl)cc1NC(=O)CN(c1ccccc1)S(=O)(=O)N(C)C` the cell number change was 16.9% and the AC50 [2] was 0.461 µM [rising, full curve, poor fit].

For `Cc1ccc(CSC2=Nc3ccccc3C3=NC(CC(=O)NCc4ccco4)C(=O)N23)cc1` (stereo not given), the cell number change was -6.54% and the AC50 [1] was 18.4 µM [falling, single point].

With `CCSc1ncc(/C=N/Nc2ccc(Cl)cc2)n1C` the cell number change was -37% and the AC50 [2] was 0.0184 µM [falling, partial curve, poor fit].

Compound `Cc1ccc(S(=O)(=O)NC(=O)Nc2ccc(F)c(F)c2)cc1` has a cell number change of 2.94%.

In the case of `Cc1cccc(/C=N\Nc2cn[nH]c(=O)c2Cl)c1`, the cell number change is reported as -38.2% and the AC50 [2] is reported as 14.6 µM [falling, partial curve, poor fit].

With `CN1CCN(CC(O)COc2ccc(S(=O)(=O)N3CCOCC3)cc2)CC1` (stereo not given) the cell number change was 3.51% and the AC50 [2] was 0.326 µM [falling, full curve, poor fit].

In the case of `Cc1ccnc(SCCn2c(N3CCCCC3)nc3c2c(=O)[nH]c(=O)n3C)n1`, the cell number change is reported as -8%, the AC50 [2] is reported as 0.731 µM [falling, single point] and the AC50 [1] is reported as 0.13 µM [rising, full curve, poor fit].

With `COc1ccc(C(=O)NCC(=O)OCC(=O)Nc2c(C)n(C)n(-c3ccccc3)c2=O)cc1` the cell number change was -37.6%, the AC50 [2] was 0.184 µM [falling, full curve] and the AC50 [1] was 23.1 µM [falling, partial curve].

In the case of `CC1CCCCN1S(=O)(=O)c1ccc2c(c1)CCN2C(=O)C1CC1` (stereo not given), the AC50 [1] is reported as 18.4 µM [falling, partial curve].

In the case of `CCOc1cc(C(=O)OCC(=O)Nc2ccc(SC(F)F)cc2)cc(OCC)c1OCC`, the cell number change is reported as 46.6%, the AC50 [2] is reported as 10.3 µM [rising, partial curve, poor fit] and the AC50 [1] is reported as 29.1 µM [rising, single point].

In the case of `COc1cccc(/C=N/NC(=O)CSc2nnc(C)n2-c2ccccc2)c1O`, the cell number change is reported as 31.1% and the AC50 [2] is reported as 32.6 µM [rising, single point].

In the case of `COc1ccc(C(=O)NCCCNC(=O)c2cc3ccccc3[nH]2)cc1OC`, the cell number change is reported as 24.6% and the AC50 [1] is reported as 4.61 µM [rising, full curve].

For `NC(=O)C1CCN(C(=O)COc2ccc(S(=O)(=O)NCc3ccccc3)cc2Cl)CC1`, the cell number change was 8.19% and the AC50 [1] was 0.517 µM [rising, single point].

For `Cc1ccccc1N=C(NO)c1cccnc1`, the cell number change was 4.26% and the AC50 [2] was 0.366 µM [rising, full curve].

For `CC(CCc1ccccc1)NC(=O)CN(C)Cc1ccc(F)cc1` (stereo not given), the cell number change was 34.2% and the AC50 [2] was 5.17 µM [rising, full curve, poor fit].

In the case of `Cn1nnnc1SCC(=O)N1c2ccccc2Sc2ccccc21`, the cell number change is reported as 3.66% and the AC50 [1] is reported as 0.103 µM [falling, full curve, poor fit].

With `Cc1ccc(-c2csc(=Nc3cccnc3)n2CCCN2CCCC2=O)cc1C` the cell number change was 12.6% and the AC50 [2] was 4.61 µM [rising, partial curve, poor fit].

With `Cc1cccc(N2CC(C(=O)NCc3ccco3)CC2=O)c1C` (stereo not given) the cell number change was 50%, the AC50 [2] was 23.1 µM [rising, single point] and the AC50 [1] was 11.6 µM [rising, partial curve].

In the case of `O=C(Nc1ccccc1N1CCN(C(=O)c2ccc(Cl)cc2)CC1)c1ccc(Br)cc1`, the AC50 [1] is reported as 2.06 µM [rising, partial curve].

For `Cc1nc2ccccc2c(=O)n1CC(=O)N1CCOCC1`, the cell number change was -87.5%, the AC50 [2] was 29.1 µM [falling, single point] and the AC50 [1] was 29.1 µM [falling, single point].

With `O=C(Nc1ccc(Br)cc1F)c1cccnc1` the cell number change was 14% and the AC50 [1] was 29.1 µM [rising, single point].

In the case of `CC1(C(=O)Nc2c(F)c(F)c(F)c(F)c2F)CC1(Br)Br` (stereo not given), the cell number change is reported as -2.99% and the AC50 [2] is reported as 0.259 µM [rising, full curve, poor fit].

With `CCN(CC(=O)Nc1ccccc1C(F)(F)F)C(=O)Cc1cccs1` the cell number change was 6.65%, the AC50 [2] was 6.51 µM [rising, single point] and the AC50 [1] was 6.51 µM [rising, single point].

With `O=C(O)c1ccc(NC(CSCc2ccc(F)cc2)C(=O)O)c([N+](=O)[O-])c1` (stereo not given) the cell number change was -31.1%, the AC50 [2] was 58 µM [falling, partial curve, poor fit] and the AC50 [1] was 23.1 µM [falling, partial curve].

With `CCOC(=O)NC(NCc1ccccc1Cl)(C(F)(F)F)C(F)(F)F` the cell number change was 32.4% and the AC50 [2] was 29.1 µM [rising, single point].

With `Clc1ccc(-c2nnc(-c3ccccc3)c(-c3c[nH]c4ccccc34)n2)cc1` the cell number change was 6.14% and the AC50 [1] was 0.82 µM [rising, full curve, poor fit].

In the case of `CC(C)C(=O)N(c1ccc2oc(=O)sc2c1)S(=O)(=O)c1ccccc1`, the cell number change is reported as 2.63%.

With `Cc1ccc2cc(C(c3nnnn3C(C)(C)C)N3CCCC3)c(=O)[nH]c2c1C` (stereo not given) the cell number change was 111%, the AC50 [2] was 1.64 µM [rising, full curve] and the AC50 [1] was 4.61 µM [rising, single point].

Work on `CC(=O)c1cc2c(cc1NC(=O)c1ccc(C)cc1)OCCO2` yielded a cell number change of -1.4%.

For `COc1ccc(C(=O)N/C(=C\c2ccc3c(c2)OCO3)C(=O)Nc2ccc(C(=O)O)cc2)cc1`, the cell number change was -44.5% and the AC50 [2] was 4.61 µM [falling, full curve, poor fit].

In the case of `COCCOc1cc(-n2ccnc2SC)c(Cl)cc1Cl`, the cell number change is reported as -22.1% and the AC50 [1] is reported as 20.6 µM [falling, partial curve, poor fit].

With `O=C(NCCN1C(=O)S/C(=C\c2ccccc2Cl)C1=O)C1=COCCO1` the AC50 [2] was 5.17 µM [falling, partial curve] and the AC50 [1] was 16.4 µM [falling, partial curve].

In the case of `O=C(Nc1ccccc1)C1CC=CCC1C(=O)OCC1CCCO1` (stereo not given), the cell number change is reported as 25.1% and the AC50 [1] is reported as 0.13 µM [falling, full curve].

With `COCCNC(=O)[C@@]1(C)C=C[C@@H](Cc2ccccc2)N1C(=O)c1ccccc1` the cell number change was 18.8% and the AC50 [1] was 29.1 µM [falling, single point].

In the case of `COc1cc2c(cc1NC(=S)Nc1ccccc1C)oc1ccccc12`, the cell number change is reported as 7.08%, the AC50 [2] is reported as 0.116 µM [rising, full curve, poor fit] and the AC50 [1] is reported as 0.731 µM [rising, partial curve].

With `CS(=O)(=O)c1cccc(-c2nnc(NC(=O)CCS(=O)(=O)c3ccccc3)o2)c1` the cell number change was 7.15% and the AC50 [1] was 5.8 µM [falling, full curve, poor fit].

With `COc1ccc(OC(C)C(=O)NCCC2=CCCCC2)cc1` (stereo not given) the cell number change was -10.2% and the AC50 [1] was 14.6 µM [falling, partial curve].

In the case of `Cc1ccc(S(=O)(=O)Nc2ccc3nc(-c4cccn4C)[nH]c3c2)cc1`, the AC50 [2] is reported as 0.231 µM [rising, full curve] and the AC50 [1] is reported as 0.291 µM [rising, full curve].
